Part of at least one peptide drawing is inferred or uncertain, most often the ends. No end group written: not given here.
Target: PCNA/full-length p21 interaction (Homo sapiens, UniProt P12004)
Test: Pull-down competition assay: PCNA captured by immobilized full-length p21-His6
Conditions: FIG. 5, gel electrophoresis

By UniProt entry, the sequences of proteins in these tests, tags left out.
UniProt P12004, whole entry: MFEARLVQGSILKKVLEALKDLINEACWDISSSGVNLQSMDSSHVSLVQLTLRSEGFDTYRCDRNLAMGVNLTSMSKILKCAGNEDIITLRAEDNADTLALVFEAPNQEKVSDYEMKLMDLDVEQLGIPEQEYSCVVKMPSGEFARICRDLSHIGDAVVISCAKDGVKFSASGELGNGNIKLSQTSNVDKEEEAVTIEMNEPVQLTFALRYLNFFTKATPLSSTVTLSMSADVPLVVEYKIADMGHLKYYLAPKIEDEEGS

Sequence: SAVLQKKITDYFHPKK [PL peptide, reference compound]
- level of PCNA captured by His6 p21: decreased significantly

Reference: patent US20140288077A1, “SUBSTITUTED 4-PHENOXYPHENOL ANALOGS AS MODULATORS OF PROLIFERATING CELL NUCLEAR ANTIGEN ACTIVITY” (ST. JUDE CHILDREN'S RESEARCH HOSPITAL, priority 2011, published 2014)
